# Results published in patent US20080096909A1, “APOMORPHINE INHIBITORS OF AMYLOID-BETA (ABETA) FIBRIL FORMATION AND THEIR USE IN AMYLOIDOSIS BASED DISEASE” (priority 2001, published 2008).
# Sequences of proteins named here, by UniProt entry; tags and fusion partners are left off. Residues count along the entry.
# UniProt P05067, 672-711: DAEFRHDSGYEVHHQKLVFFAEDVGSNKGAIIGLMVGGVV
# Some of these results come from one statement about several compounds together. Some ranges recur; such a range may be that of the whole group of compounds.
# Columns and labels:
# [1] = target: T1, pre-formed Aβ fibrils (Homo sapiens, UniProt P05067); test: Competition for Thioflavin T binding sites on pre-formed Aβ fibrils; details: fibrils formed in the absence of apomorphine, 37° C., 3 days
# T1 construct: Amyloid-β (Aβ 1-40) was purchased from California Peptides (Lot # SF104); purchased California Peptides Lot # SF104
# [2] = target: Aβ 1-40 (Homo sapiens, UniProt P05067); test: Electron microscopy of Aβ aggregates in the presence of inhibitor; type: biochemical; design: Amyloid-β (Aβ 1-40) was purchased from California Peptides (Lot # SF104); purchased California Peptides Lot # SF104
# Protocol: Electron Microscopy. Electron microscopy was used to follow the changes in size and structural morphology of Aβ aggregates in the presence and absence of inhibitor at 37° C. as a function of time. EM samples were prepared by placing 5 μL of the Aβ solution on a carbon-coated grid and allowing the solution to stand for 2 min before removing excess solution. The grid was then washed once with distilled water and once with 1% uranyl acetate before staining the sample with fresh 1% uranyl acetate for another 2 min. The samples were then studied in a Phillips CM-100 electron microscope. The grids were thoroughly examined to get an overall statistical evaluation of the structures present in the sample. All electron micrographs were taken at 100 kV.
smiles,measurement,setting,value
"CN1CCc2cccc3c2C1Cc1ccc(O)c(O)c1-3 (single isomer, unassigned; (-)) [apomorphine, (−)-10,11-dihydroxyaporphine]",Decrease in the ThT signal on addition to pre-formed Aβ fibrils,[1],70-85%
same,Incubation period during which nonfibrillar assemblies remain the dominant species (EM and sedimentation velocity),"[2]; 37° C., incubation extended to nine days",1 to 6 days
same,Average length of short oligomeric aggregates (EM),"[2]; Aβ 1-40 100 μM with compound, pH 7.4, 37° C., 3 days",100-300 nm
